Data reported in publication PMC3708934.
Results are given in words; binding and its absence hold for the method and conditions named. In cells and extracts the contact can be indirect. Some binding calls cover weakened binding; strength is not graded here.

The chains behind the UniProt entries cited, without tags or fusion partners. Where a name states a change or a piece, a line headed by the entry shows the natural chain unless it says otherwise. A line that says so, or that is headed by a name, gives the form on record, which may keep a tag or linker.
UniProt Q9Y3Z3: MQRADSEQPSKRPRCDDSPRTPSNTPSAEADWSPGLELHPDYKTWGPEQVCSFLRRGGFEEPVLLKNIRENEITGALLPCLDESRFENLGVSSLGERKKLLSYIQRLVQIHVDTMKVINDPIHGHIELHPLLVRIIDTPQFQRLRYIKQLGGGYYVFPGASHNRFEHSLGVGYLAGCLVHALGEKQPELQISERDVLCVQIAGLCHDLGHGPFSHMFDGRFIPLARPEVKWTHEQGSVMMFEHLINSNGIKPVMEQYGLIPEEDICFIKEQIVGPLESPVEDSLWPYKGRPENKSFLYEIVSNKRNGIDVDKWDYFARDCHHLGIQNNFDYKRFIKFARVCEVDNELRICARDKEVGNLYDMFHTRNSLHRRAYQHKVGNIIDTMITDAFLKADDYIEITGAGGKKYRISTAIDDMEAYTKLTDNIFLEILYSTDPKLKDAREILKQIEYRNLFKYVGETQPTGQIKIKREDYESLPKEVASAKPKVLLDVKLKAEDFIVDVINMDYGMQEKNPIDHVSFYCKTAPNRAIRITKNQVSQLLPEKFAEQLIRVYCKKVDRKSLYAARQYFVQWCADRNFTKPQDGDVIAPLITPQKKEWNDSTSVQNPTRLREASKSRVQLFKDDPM
SAMHD1 Δ2–109-HA (Q9Y3Z3, form named): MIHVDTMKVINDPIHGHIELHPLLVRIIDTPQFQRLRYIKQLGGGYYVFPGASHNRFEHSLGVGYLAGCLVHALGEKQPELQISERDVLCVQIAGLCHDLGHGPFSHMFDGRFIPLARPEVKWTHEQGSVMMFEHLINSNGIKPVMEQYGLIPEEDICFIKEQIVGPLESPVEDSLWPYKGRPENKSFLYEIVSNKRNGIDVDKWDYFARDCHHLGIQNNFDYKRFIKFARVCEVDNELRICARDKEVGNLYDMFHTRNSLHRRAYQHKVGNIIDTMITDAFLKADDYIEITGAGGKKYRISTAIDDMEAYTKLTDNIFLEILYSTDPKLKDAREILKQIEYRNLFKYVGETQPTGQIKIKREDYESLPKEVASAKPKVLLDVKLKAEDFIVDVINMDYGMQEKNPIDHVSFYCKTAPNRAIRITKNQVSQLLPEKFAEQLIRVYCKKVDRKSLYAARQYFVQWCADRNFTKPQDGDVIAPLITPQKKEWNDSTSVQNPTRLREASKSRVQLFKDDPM
UniProt Q14974: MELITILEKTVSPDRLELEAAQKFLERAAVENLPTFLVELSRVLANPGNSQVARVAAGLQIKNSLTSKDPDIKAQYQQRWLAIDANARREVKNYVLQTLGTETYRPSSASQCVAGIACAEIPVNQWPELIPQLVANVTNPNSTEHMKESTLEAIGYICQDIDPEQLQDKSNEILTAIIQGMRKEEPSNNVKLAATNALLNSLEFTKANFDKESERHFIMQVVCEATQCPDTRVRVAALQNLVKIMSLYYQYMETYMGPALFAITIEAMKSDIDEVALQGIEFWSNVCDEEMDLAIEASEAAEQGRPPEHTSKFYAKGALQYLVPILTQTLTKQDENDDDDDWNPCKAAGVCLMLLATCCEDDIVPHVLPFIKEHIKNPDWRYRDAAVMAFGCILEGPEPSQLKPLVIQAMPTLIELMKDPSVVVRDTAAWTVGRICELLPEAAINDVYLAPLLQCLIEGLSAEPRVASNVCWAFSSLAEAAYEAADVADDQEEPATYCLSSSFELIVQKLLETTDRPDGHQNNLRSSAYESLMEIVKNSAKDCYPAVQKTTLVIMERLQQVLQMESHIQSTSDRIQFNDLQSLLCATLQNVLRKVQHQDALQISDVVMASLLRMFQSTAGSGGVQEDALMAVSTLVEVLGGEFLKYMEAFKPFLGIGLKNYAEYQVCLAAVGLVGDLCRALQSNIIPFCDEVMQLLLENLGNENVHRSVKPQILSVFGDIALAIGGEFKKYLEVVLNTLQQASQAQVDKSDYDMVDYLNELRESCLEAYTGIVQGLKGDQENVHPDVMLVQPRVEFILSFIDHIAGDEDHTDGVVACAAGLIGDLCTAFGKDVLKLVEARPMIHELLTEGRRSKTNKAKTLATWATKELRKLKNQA

Columns and labels:
Test in all cases: co-IP; SAMHD1-HA WT or mutants transfected into HEK293T; lysates 48 h after transfection precipitated with anti-HA affinity matrix; endogenous KPNB1 detected by immunoblot with anti-KPNB1
[1] = target: wild-type SAMHD1-HA (sterile alpha motif and HD domain-containing protein-1) (human) (UniProt Q9Y3Z3)
SAMHD1 K11A-HA (human) = SAMHD1 K11A-HA (human) (UniProt Q9Y3Z3)
SAMHD1 Δ2–109-HA (human) = SAMHD1 Δ2–109-HA (human) (UniProt Q9Y3Z3)

Measured: binding

karyopherin-β1 (KPNB1) (from UniProt Q14974 1-876)
binds: all assays above
